No constants are given. Whether binding was seen depends on the method and setting. Some binding calls cover weakened binding; strength is not graded here. Where a sequence is shown, tags or fusion partners need not be part of it.
T1: recombinant mouse myostatin propeptide-Fc chimera protein (R&D Systems) (mouse) (UniProt O08689)
T1 sequence: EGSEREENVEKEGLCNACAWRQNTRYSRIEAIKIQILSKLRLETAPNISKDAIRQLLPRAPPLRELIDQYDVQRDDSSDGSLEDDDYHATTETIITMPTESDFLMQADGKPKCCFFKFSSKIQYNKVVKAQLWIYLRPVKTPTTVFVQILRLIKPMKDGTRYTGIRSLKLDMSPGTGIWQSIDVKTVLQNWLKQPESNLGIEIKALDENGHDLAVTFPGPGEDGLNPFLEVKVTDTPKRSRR

T2: GST-hMSTN 1-100aa (human) (UniProt O14793)
T2 sequence: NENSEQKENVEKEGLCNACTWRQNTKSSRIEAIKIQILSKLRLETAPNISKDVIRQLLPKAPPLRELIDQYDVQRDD

T3: GST-hMSTN 21-120aa (human) (UniProt O14793)
T3 sequence: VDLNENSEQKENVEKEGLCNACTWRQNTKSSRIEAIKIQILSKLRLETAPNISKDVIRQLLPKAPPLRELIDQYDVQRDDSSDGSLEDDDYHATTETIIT

T4: GST-hMSTN 41-140aa (human) (UniProt O14793)
T4 sequence: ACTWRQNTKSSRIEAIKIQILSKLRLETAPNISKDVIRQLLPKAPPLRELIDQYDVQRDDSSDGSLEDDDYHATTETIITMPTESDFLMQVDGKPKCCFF

T5: GST-hMSTN 61-160aa (human) (UniProt O14793)
T5 sequence: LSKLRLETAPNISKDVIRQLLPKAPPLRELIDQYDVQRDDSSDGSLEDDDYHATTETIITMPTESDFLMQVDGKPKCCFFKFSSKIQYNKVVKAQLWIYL

T6: GST-hMSTN 81-180aa (human)
T6 sequence: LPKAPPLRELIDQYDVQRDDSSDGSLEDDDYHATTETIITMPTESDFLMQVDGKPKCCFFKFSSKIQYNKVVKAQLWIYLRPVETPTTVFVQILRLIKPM

B1: MS_MST1032Ha-G1m/MST1032La-k0MC (antibody, human IgG1, kappa, V domains shown)
VH: QSLEESGGRLVTPGGSLTVTCRVSGIDLSSYDISWVRQAPGKGLEWIGIISYAGSTYYASWAKGRFTISKTSTTVDLKMTSLTTEDTATYFCARGVPAYSTGGDLWGPGTLVTVSS
VL: AQVLTQTASSVSAAVGGTVTINCQSSQSVYDNNWLSWFQQKPGQPPKLLIYWASTLASGVPSRFKGSGSGTQFTLTISDLECDDAATYYCAGGYGGGLYAFGGGTKVEIKR
B2: MST1032 (as tested in Example 26) (antibody, V domains shown)
VH: B1 VH
VL: AQVLTQTASSVSAAVGGTVTINCQSSQSVYDNNWLSWFQQKPGQPPKLLIYWASTLASGVPSRFKGSGSGTQFTLTISDLECDDAATYYCAGGYGGGLYAFGGGTKVEIK
B3: MST1538 (antibody, human IgG1, kappa, V domains shown)
VH: QSLEESGGGLVKPGGTLTLTCKASGIDFSSYYYMCWVRQAPGKGLEWIACIYAGISGSTYYASWAKGRFTISKTSSTTVTLQMTSLTAADTATYFCARDPYHFDYGSLWGPGTLVTVSS
VL: ALVMTQTPASVSAAVGGTVTINCQASQSVYGGNELSWYQQEPGQPPKLLIYSASKLASGVPSRFKGSGSGTQFTLTISGVQCDDAAAYYCAGYRTYSDDDNAFGGGTKVEIKR
B4: MST1572 (antibody, human IgG1, kappa, V domains shown)
VH: QSVEESGGRLVTPGTPLTLTCTVSGFSLSSYAMSWVRQAPGKGLEWIGIIYGVGSTYYASWAKGRFTISKTSTTVDLKIASPTTEDTATYFCARDDYGWGYTNLWGPGTLVTVSS
VL: QVLTQTPSSVSAAVGGTVTINCQSSQSVYNNNYLAWFQQKPGQPPKLLIYDASKLASGVPSRFKGSGSGTQFTLTISGVQCDDAATYYCQGSYYSSGWYRAFGGGTKVEIKR
B5: MST1573 (antibody, human IgG1, kappa, V domains shown)
VH: QSVEESGGRLVTPGTPLTLTCTVSGIDLSSSSMIWVRQAPGEGLKYIGFISKSGYTYYASWAKGRFTISKTSTTVDLKITSPTTEDTATYFCARGGYSGDWDYFTLWGPGTLVTVSS
VL: DIVMTQTPASVEAAVGGTVTIKCQASESIGNALAWYQQKPGQPPKLLIYGAFNLESGVPSRFRGSGSGTEYTLTISDLECDDAATYYCQGYFWSSSTIYAFWAFGGGTKVEIKR

Key:
[1] = target: T1, recombinant mouse myostatin propeptide-Fc chimera protein (R&D Systems) (mouse); assay: ELISA, biotinylated antigen (4 nM) on streptavidin plate, anti-human IgG-HRP
[2] = target: T2, GST-hMSTN 1-100aa (human); assay: Western blot on GST tagged fragments
[3] = target: T3, GST-hMSTN 21-120aa (human); assay: Western blot on GST tagged fragments
[4] = target: T4, GST-hMSTN 41-140aa (human); assay: Western blot on GST tagged fragments
[5] = target: T5, GST-hMSTN 61-160aa (human); assay: Western blot on GST tagged fragments
[6] = target: T6, GST-hMSTN 81-180aa (human); assay: Western blot on GST tagged fragments

Binder	binding [1]	binding [2]	binding [3]	binding [4]	binding [5]	binding [6]
B1	binds	–	–	–	–	–
B2	–	binds	binds	binds	binds	binds
B3	–	binds	binds	binds	–	–
B4	–	binds	binds	binds	–	–
B5	–	binds	binds	–	–	–
